The name of at least one read-out is uncertain.
Biological target: T1, Aldose Reductase (Bos taurus, UniProt P16116)
T1 construct: The enzyme is extracted from beef eye lenses; from tissue; host or cells: beef eye lenses
Assay: Inhibition of aldose reductase in vitro (enzyme from beef eye lenses, glyceraldehyde substrate)
Format: biochemical
Conditions: in DMF solution
Excerpt: Inhibition of Aldose Reductase In Vitro
The reoxidation of NADPH coupled to the enzymatic reaction was followed spectrophotometrically at 340 nm.

Structure (SMILES) | percentages of inhibition (aldose reductase) (5.10^-5 mole/l) [%] | percentages of inhibition (aldose reductase) (5.10^-6 mole/l) [%]
O=c1ccc2cc(O[C@@H]3O[C@H](CO)[C@@H](O)[C@H](O)[C@H]3O)c(O)cc2o1 [Esculin, reference compound] | 0 | –
C[C@@H]1O[C@@H](Oc2c(-c3cc(O)c(O)c(O)c3)oc3cc(O)cc(O)c3c2=O)[C@H](O)[C@H](O)[C@H]1O [Myricitrin, reference compound] | – | 50

— patent US4211772A, “Benzopyran glycoside acetals and ketals” (Laboratoires Sarget, priority 1977, dated 1980)
